Measured values published in the supplement of paper PMC10849652.
Some of the results follow.

The chains behind the UniProt entries cited, without tags or fusion partners. Where a name states a change or a piece, a line headed by the entry shows the natural chain unless it says otherwise.
UniProt Q99988: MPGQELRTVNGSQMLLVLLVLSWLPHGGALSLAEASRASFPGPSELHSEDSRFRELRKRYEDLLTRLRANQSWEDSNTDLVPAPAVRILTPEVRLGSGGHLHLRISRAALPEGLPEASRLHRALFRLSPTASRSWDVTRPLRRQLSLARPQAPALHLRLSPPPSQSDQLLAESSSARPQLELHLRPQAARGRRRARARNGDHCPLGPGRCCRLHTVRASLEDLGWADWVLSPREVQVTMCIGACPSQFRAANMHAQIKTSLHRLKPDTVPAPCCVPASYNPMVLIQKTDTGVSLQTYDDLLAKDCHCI
UniProt Q04446: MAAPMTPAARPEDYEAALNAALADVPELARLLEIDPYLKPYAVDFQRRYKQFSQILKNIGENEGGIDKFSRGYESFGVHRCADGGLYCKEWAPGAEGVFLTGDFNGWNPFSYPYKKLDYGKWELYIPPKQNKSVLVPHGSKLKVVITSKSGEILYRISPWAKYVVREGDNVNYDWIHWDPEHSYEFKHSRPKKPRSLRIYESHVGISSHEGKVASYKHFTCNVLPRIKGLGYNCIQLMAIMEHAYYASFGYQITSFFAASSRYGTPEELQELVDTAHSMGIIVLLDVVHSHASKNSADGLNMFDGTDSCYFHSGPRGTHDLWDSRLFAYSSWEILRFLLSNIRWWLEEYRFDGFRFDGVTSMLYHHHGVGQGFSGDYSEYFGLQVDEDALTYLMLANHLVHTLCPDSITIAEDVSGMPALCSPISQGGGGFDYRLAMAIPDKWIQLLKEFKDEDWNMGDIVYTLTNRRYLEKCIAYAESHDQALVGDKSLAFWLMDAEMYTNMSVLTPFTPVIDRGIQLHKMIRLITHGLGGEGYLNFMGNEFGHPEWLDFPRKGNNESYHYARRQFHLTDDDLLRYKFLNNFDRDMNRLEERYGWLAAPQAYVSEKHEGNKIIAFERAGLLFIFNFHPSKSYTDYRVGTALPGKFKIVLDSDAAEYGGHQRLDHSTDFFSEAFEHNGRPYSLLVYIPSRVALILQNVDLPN
UniProt Q96NB1: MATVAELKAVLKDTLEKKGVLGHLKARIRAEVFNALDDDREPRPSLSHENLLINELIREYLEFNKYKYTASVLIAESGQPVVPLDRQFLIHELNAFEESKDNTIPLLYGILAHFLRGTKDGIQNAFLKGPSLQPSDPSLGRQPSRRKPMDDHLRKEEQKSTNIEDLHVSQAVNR
UniProt Q9UP38, whole entry, looked up: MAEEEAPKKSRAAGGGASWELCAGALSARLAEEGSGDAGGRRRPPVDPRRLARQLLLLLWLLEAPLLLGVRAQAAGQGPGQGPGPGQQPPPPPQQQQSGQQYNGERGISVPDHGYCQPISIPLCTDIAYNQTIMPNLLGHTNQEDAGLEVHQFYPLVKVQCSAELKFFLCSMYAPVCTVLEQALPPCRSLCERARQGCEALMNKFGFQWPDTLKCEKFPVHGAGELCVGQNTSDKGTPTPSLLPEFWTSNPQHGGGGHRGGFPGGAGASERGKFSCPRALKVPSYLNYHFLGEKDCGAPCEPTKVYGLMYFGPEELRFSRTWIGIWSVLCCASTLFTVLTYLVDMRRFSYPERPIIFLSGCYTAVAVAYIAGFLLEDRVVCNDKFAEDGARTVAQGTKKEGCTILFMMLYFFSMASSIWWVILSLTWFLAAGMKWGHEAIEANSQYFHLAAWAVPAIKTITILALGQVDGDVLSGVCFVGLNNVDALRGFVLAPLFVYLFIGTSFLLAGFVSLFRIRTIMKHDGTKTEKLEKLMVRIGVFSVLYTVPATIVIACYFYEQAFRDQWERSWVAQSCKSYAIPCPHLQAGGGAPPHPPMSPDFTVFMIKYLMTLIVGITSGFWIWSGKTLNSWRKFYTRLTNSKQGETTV
UniProt Q8TET4: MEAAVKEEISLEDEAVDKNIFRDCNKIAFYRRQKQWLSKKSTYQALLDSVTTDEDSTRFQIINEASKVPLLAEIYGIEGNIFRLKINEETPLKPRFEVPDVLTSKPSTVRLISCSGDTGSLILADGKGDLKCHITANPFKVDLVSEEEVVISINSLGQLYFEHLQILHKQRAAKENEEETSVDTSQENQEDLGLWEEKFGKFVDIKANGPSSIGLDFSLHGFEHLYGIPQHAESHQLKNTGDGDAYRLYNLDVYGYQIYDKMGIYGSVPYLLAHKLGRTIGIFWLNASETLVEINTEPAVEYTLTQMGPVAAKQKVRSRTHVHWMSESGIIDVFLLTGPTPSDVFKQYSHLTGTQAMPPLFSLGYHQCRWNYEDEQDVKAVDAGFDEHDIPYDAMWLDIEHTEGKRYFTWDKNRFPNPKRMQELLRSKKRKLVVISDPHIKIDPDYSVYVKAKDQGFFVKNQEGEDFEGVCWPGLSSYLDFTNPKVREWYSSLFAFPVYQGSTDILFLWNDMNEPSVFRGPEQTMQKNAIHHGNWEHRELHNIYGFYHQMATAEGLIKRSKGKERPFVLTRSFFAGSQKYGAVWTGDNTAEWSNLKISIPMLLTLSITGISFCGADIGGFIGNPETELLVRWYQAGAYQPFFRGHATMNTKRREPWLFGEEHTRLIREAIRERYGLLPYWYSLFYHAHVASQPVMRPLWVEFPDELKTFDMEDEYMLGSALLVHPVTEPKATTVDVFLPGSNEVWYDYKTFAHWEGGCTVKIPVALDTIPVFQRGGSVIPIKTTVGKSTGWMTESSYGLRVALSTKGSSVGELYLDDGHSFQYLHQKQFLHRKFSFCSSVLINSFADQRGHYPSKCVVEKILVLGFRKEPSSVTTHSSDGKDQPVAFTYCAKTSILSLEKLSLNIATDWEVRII
UniProt Q05932: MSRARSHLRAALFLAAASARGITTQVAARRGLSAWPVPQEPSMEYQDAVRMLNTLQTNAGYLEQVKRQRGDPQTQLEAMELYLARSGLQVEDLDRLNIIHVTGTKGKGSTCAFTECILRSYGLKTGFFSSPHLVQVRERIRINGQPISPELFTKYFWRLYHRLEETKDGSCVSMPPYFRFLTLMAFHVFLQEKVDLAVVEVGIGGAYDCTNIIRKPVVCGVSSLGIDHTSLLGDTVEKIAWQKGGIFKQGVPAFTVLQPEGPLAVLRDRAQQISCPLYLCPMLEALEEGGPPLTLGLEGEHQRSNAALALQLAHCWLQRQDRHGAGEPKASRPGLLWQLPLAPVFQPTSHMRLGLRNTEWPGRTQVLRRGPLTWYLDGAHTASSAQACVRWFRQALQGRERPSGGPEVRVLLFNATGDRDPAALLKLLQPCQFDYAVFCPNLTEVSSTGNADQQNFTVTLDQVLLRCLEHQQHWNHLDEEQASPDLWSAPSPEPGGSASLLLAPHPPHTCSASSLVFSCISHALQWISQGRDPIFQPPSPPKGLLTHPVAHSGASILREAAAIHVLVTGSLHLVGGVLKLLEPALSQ
UniProt P22466: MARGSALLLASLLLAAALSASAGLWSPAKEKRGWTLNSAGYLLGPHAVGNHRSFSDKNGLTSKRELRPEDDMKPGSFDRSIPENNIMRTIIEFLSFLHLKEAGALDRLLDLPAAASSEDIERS
UniProt Q9H840: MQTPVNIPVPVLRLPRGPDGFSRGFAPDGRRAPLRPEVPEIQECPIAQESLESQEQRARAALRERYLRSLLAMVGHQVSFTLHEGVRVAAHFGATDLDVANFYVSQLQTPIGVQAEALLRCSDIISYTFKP
UniProt Q8IY81: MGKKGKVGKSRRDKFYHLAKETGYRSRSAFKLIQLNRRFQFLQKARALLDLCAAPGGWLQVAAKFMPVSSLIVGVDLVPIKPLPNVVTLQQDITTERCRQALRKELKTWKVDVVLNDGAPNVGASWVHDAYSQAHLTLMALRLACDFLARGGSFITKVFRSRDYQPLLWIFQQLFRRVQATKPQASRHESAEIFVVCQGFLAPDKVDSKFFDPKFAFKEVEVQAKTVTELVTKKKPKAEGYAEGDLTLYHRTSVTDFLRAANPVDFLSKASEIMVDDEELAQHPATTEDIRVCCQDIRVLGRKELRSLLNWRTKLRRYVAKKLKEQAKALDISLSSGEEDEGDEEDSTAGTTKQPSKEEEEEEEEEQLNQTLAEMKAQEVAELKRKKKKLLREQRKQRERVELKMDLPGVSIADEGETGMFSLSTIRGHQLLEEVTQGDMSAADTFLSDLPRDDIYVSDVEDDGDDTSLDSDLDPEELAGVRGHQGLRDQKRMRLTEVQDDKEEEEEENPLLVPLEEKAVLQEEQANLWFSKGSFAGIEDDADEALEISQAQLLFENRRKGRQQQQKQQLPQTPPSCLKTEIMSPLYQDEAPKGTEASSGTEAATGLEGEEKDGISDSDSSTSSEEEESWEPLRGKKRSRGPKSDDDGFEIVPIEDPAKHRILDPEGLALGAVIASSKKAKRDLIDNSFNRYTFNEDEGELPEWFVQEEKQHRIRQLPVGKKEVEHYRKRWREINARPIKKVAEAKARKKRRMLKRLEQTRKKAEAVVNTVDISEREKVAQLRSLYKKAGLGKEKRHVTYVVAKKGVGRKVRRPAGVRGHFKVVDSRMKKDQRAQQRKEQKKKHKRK
UniProt Q9UET6: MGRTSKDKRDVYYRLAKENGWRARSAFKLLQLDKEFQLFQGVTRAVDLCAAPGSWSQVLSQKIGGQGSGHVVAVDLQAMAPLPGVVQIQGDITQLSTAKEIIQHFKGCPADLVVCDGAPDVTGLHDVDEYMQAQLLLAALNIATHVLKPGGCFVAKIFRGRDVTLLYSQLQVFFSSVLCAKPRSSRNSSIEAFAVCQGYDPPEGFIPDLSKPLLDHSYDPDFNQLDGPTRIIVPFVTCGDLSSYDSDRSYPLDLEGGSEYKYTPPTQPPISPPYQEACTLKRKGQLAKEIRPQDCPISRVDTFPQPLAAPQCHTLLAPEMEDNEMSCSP
UniProt Q6P4F1: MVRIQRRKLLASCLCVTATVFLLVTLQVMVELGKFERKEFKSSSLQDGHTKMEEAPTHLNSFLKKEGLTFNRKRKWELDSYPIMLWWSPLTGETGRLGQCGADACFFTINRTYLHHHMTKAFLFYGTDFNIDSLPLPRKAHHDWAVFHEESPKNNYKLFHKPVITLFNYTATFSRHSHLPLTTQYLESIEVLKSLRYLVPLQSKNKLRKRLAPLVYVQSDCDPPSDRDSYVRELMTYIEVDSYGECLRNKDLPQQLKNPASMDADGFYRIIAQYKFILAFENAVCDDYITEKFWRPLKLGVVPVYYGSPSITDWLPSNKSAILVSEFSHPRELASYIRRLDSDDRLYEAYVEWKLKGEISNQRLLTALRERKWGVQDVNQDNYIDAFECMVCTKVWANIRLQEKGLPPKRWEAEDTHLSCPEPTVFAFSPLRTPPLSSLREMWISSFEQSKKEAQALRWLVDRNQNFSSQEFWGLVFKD
UniProt Q96CN9: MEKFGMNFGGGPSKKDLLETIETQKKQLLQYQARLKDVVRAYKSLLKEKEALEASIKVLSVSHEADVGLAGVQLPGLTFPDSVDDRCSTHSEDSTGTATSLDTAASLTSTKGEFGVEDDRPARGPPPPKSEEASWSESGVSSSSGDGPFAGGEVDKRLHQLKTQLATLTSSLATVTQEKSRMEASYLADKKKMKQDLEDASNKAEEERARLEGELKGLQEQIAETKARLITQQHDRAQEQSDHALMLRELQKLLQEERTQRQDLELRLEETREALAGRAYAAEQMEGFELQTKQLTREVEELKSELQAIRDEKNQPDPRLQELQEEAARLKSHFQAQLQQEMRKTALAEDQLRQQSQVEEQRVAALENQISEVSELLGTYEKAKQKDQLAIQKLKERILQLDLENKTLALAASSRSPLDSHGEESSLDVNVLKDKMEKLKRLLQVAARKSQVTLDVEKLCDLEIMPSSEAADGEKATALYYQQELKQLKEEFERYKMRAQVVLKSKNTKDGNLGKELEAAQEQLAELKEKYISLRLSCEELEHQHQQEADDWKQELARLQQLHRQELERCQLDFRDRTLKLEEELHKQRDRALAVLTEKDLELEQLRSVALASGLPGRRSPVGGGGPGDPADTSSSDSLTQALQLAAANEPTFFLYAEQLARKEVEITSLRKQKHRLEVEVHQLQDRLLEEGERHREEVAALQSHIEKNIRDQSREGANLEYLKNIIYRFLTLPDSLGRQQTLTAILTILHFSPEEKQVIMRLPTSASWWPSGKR
UniProt Q06547, whole entry, looked up: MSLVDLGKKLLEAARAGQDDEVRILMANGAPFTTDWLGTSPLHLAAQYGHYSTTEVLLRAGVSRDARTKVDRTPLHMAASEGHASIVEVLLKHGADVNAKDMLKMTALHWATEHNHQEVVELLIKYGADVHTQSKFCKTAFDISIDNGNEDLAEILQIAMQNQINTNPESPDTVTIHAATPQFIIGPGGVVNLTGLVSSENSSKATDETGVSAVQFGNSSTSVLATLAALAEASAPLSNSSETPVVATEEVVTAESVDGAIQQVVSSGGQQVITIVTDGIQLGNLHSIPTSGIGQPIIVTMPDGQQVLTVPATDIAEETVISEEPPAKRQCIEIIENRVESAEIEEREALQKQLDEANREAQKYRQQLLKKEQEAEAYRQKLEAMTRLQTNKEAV
UniProt P01275: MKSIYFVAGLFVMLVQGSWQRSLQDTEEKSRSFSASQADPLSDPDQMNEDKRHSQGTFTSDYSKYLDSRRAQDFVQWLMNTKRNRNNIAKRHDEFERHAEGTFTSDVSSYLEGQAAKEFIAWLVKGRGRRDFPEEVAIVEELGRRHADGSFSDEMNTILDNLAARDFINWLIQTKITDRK

Legend:
Assay in all cases: log2 fold change, soluble protein after heating vs DMSO (PISA); higher = thermal stabilisation; K562 cells, 10 uM, 30 min; active = over 0.2 and 3.5 SD of the protein, either way, in both replicates (recomputed)
[1] = compound: CC[C@@H]1C(=O)N(C)c2cnc(Nc3ccc(C(=O)NC4CCN(C)CC4)cc3OC)nc2N1C1CCCC1
In short: (§1)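 Soluble protein was defined as the supernatant after 21,000xg for 90 min. It came from K562 cells at 2×10^6 cells/mL given 10 μM compound for 30 min, heated in aliquots for 3 min across 48°C-58°C, pooled, and extracted in PBS with 0.5% NP-40 at 4°C, and was quantified by TMTpro 16plex LC-MS/MS with equalised channel sums. Thermal stability against control samples, from duplicates, is reported as log2 fold change.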

epoxomicin = compound: CC[C@H](C)[C@@H](C(=O)N[C@@H]([C@@H](C)O)C(=O)N[C@@H](CC(C)C)C(=O)[C@]1(CO1)C)NC(=O)[C@H]([C@@H](C)CC)N(C)C(=O)C [epoxomicin]
In short: as §1

[2] = compound: CCn1cc(-c2ccnc3[nH]c(-c4cccc(CN(C)C)c4)cc23)c(-c2ccc(NC(=O)N(C)C)cc2)n1
In short: as §1

[3] = compound: CN1CCC(CNc2ccc3ncc(-c4cccc(OC(F)(F)F)c4)n3n2)CC1
In short: as §1

[4] = compound: CC[C@H](C)N1C=C(C2=C(C=C(C=C21)C3=CN=C(C=C3)N4CCNCC4)C(=O)NCC5=C(C=C(NC5=O)C)C)C
In short: as §1

[5] = compound: CCn1c(C(=O)N(C2CC2)C2CC2)cc2c3c(ncn3C)c(Nc3cc(C)n(C)n3)nc21
In short: as §1

[6] = compound: CN1C2=C(C3=C1C(=O)N(N=C3)CC4=CC(=CC=C4)N)SC(=C2)S(=O)C
In short: as §1

rosiglitazone = compound: CN(CCOC1=CC=C(C=C1)C[C@H]2C(=O)NC(=O)S2)C3=CC=CC=N3 (racemic) [rosiglitazone]
In short: as §1

[7] = compound: CN(C)CC(=O)Nc1ccc2[nH]c(=O)c3ccccc3c2c1
In short: as §1

volasertib = compound: CC[C@@H]1C(=O)N(C)c2cnc(Nc3ccc(C(=O)N[C@H]4CC[C@H](N5CCN(CC6CC6)CC5)CC4)cc3OC)nc2N1C(C)C [volasertib]
In short: as §1

Measured: log2 fold change

FYTTD1 (UniProt Q96QD9)
inactive: [1] 0.18 | epoxomicin -0.18 | [2] -0.064 | [3] 0.267

GDAP2 (UniProt Q9NXN4)
inactive: [1] 0.155 | [4] 0.076 | epoxomicin -0.052 | [5] 0.028 | [6] 0.079

GDPD5 (UniProt Q8WTR4)
inactive: [1] -0.103 | epoxomicin 0.046 | rosiglitazone 0.044

FUT8 (UniProt Q9BYC5)
inactive: [4] -0.042 | epoxomicin 0.002 | [2] 0.06 | [7] 0.175 | [6] -0.04 | [3] -0.057
active: [1] -0.327

GAK (UniProt O14976)
inactive: [1] 0.673 | volasertib 1.35 | [4] -0.401 | epoxomicin -0.046 | [2] 0.11 | [7] 0.382 | [6] -0.038 | [3] 0.95

GDF15 (UniProt Q99988)
inactive: [1] -0.153 | volasertib 0.061 | [4] 0.088 | [7] -0.071 | rosiglitazone -0.023 | [6] 0.17

GAA (UniProt P10253)
inactive: [1] -0.129 | epoxomicin -0.013 | [5] -0.377 | [2] 0.013 | [7] 0.105 | [3] -0.073

GBE1 (UniProt Q04446)
active: volasertib -0.61
inactive: [1] 0.042 | epoxomicin 0.168 | [7] 0.058 | [6] 0.071

GATA2 (UniProt P23769)
inactive: [1] 0.178 | volasertib 0.086 | [4] -0.001 | [5] 0.043 | [2] -0.074 | [7] -0.126 | rosiglitazone 0.016 | [6] 0.058 | [3] 0.114

GHDC (UniProt Q8N2G8)
inactive: [1] -0.075 | volasertib -0.053 | [4] -0.063 | epoxomicin -0.021 | [2] -0.024 | [7] 0.009 | [6] -0.053 | [3] -0.041

GATAD2B (UniProt Q8WXI9)
inactive: [1] -0.023 | volasertib -0.117 | epoxomicin 0.104 | [5] 0.005 | [7] 0

FOPNL (UniProt Q96NB1)
inactive: volasertib 0.095 | [4] 0.269 | epoxomicin -0.154 | [5] -0.033 | [2] 0.118 | [7] 0.015 | rosiglitazone 0.007 | [6] -0.025 | [3] 0.032

GDI2 (UniProt Q5SX86)
inactive: epoxomicin -0.069 | [5] 0.14 | rosiglitazone 0.223

FXYD5 (UniProt Q96DB9)
inactive: volasertib -0.129 | [2] 0.216 | [7] -0.062 | [6] -0.007 | [3] -0.08

FZD1 (UniProt Q9UP38)
inactive: [4] 0.122 | epoxomicin 0.125 | [5] -0.018 | [7] -0.157 | rosiglitazone 0.119

GANC (UniProt Q8TET4)
inactive: [4] 0.077

FUT1 (UniProt P19526)
inactive: epoxomicin 0.155

FPGS (UniProt Q05932)
inactive: volasertib -0.244 | epoxomicin -0.19 | [5] -0.032 | [2] -0.056 | [7] 0.038 | rosiglitazone 0.141 | [6] -0.032 | [3] 0.039

GAL (UniProt P22466)
inactive: [5] 0.034 | [7] 0.042 | rosiglitazone -0.068

GATB (UniProt O75879)
inactive: volasertib -0.56 | [4] 0.112 | epoxomicin 0.149 | [5] -0.213 | [2] -0.056 | [7] 0.116 | [6] 0.053 | [3] -0.455

Two successive records from above, quoted:
GANC (UniProt Q8TET4)
inactive: [4] 0.077

FUT1 (UniProt P19526)
inactive: epoxomicin 0.155

(cont.)

GCFC2 isoform 3 (UniProt P16383)
inactive: volasertib 0.196 | [5] -0.11 | [7] -0.015 | [6] -0.054

GDPD3 (UniProt Q7L5L3)
inactive: volasertib 0.031 | epoxomicin -0.048 | [5] -0.1 | [2] -0.081 | [7] 0.027 | [3] 0.054

FZD5 (UniProt Q13467)
inactive: volasertib 0.277 | epoxomicin -0.091 | [5] -0.132 | rosiglitazone 0.075

GALNT3 (UniProt Q14435)
inactive: [5] 0.146 | [2] 0.035 | [3] 0.128

GAPDH isoform 2 (UniProt P04406)
inactive: [5] -0.101

GALNT10 (UniProt Q86SR1)
inactive: volasertib -0.072 | [4] -0.028 | epoxomicin 0.008 | [2] 0.058 | rosiglitazone 0.134 | [6] -0.099 | [3] 0.188

Pulled one by one from the list above (2):
FPGS (UniProt Q05932)
inactive: volasertib -0.244 | epoxomicin -0.19 | [5] -0.032 | [2] -0.056 | [7] 0.038 | rosiglitazone 0.141 | [6] -0.032 | [3] 0.039

GALNT3 (UniProt Q14435)
inactive: [5] 0.146 | [2] 0.035 | [3] 0.128

(continued)

FUT11 (UniProt Q495W5)
inactive: volasertib 0.192 | [4] -0.174 | epoxomicin -0.01 | [5] -0.068 | [2] -0.108 | [7] -0.13 | rosiglitazone 0.062 | [6] 0.064 | [3] 0.089

FRYL isoform 2 (UniProt O94915)
inactive: volasertib -0.139 | epoxomicin 0.083 | [7] 0.115

GDPGP1 (UniProt Q6ZNW5)
inactive: volasertib 0.031 | [4] 0.095 | [5] -0.124 | [6] -0.034

GEMIN7 (UniProt Q9H840)
inactive: epoxomicin 0.098 | [5] -0.089 | [2] 0.022 | [3] 0.339

FTSJ3 (UniProt Q8IY81)
inactive: volasertib 0.067 | [5] -0.119 | [2] -0.312 | [6] 0.128 | [3] 0.154

GGT1 (UniProt P19440)
inactive: volasertib 0.017 | epoxomicin -0.032 | [5] -0.013 | [2] 0.134 | rosiglitazone 0.086 | [6] -0.155 | [3] -0.086

FOXJ2 (UniProt Q9P0K8)
inactive: [7] -0.077

FTSJ1 isoform 2 (UniProt Q9UET6)
inactive: [5] -0.082

GFM2 (UniProt Q969S9)
inactive: [1] 0.04 | rosiglitazone -0.018

GALNT6 (UniProt Q8NCL4)
inactive: volasertib -0.045 | [4] 0.116 | epoxomicin 0.031 | [5] -0.145 | rosiglitazone -0.13 | [6] -0.506

GFOD2 (UniProt Q3B7J2)
inactive: epoxomicin 0.015

FUT10 isoform 2 (UniProt Q6P4F1)
inactive: epoxomicin 0.012 | [2] -0.053 | [3] -0.042

GCC1 (UniProt Q96CN9)
inactive: [4] -0.016 | epoxomicin -0.329 | [5] 0.03 | [2] 0.176 | [3] -0.121

GABPB1 isoform 3 (UniProt Q06547)
inactive: volasertib -0.285 | [2] 0.045 | [7] 0.013 | rosiglitazone 0.064 | [6] -0.032 | [3] 0.054

GABPB1 (UniProt Q06547)
inactive: volasertib -0.053 | [5] -0.011 | [7] 0.049 | rosiglitazone 0.014

GFOD1 (UniProt Q9NXC2)
inactive: volasertib 0.075 | epoxomicin -0.008 | [5] -0.114 | [2] -0.003 | [3] 0.127

GCG (UniProt P01275)
inactive: [6] 1.36

FUNDC1 (UniProt Q8IVP5)
inactive: volasertib 0.078
